The record followed here is PubChem BioAssay AID720587 (Broad Institute, 2013).

The entries are a selection whose mix differs from that of the whole data set. Calls of active or inactive are those of the source.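 The calls were made as follows: active = fitted curve reaches -35% activity change at a concentration below twice the top valid dose tested; inactive = the rest, including effects opposite to the expected direction.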

The assay in a line: A673 Ewing sarcoma viability loss – cell-based, CellTiter-Glo luminescence, cherry-pick retest, confirmation (AID 720587). Conditions: CellTiter-Glo ATP luminescence, 72 h, at 26 µM (top of the series). For orientation: ATP-based viability assays read luminescence as a measure of living cells.

On to `O=S(=O)(c1ccc2nc(SCc3cccc(Cl)c3)[nH]c2c1)N1CCOCC1`, for which the activity change, negative = cytotoxicity was inactive: -3.63%.
